According to the supplement of paper PMC10849652:
The list shows a part of the results.

Sequences of proteins named here, by UniProt entry; tags and fusion partners are left off. A change or cut given only in a name is not applied to a line headed by its entry.
UniProt Q8NBT2: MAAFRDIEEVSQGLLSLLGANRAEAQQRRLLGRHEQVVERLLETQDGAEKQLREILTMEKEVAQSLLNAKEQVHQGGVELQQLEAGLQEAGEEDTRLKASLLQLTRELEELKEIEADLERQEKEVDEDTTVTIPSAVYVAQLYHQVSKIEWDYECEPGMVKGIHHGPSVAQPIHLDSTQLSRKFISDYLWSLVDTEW
UniProt P51692: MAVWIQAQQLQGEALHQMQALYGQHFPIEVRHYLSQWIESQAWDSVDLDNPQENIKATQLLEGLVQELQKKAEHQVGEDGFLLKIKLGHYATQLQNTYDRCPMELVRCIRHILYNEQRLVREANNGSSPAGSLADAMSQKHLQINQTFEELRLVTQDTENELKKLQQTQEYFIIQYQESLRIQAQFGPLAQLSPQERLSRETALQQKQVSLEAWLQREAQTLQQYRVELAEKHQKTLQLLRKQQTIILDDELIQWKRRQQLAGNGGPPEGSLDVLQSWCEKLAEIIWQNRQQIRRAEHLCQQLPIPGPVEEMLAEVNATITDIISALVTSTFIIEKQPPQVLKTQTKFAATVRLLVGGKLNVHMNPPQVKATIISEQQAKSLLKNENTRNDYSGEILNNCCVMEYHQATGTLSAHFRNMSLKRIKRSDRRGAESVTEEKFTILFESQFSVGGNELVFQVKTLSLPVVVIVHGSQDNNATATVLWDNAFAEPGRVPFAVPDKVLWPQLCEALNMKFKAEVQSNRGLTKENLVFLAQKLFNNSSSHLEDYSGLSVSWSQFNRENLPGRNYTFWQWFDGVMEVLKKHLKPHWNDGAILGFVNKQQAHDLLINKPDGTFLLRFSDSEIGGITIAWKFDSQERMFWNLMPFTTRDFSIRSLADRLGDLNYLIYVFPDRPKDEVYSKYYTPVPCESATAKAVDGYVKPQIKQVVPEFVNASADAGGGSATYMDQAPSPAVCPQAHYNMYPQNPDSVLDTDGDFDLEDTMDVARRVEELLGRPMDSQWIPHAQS
UniProt O75494: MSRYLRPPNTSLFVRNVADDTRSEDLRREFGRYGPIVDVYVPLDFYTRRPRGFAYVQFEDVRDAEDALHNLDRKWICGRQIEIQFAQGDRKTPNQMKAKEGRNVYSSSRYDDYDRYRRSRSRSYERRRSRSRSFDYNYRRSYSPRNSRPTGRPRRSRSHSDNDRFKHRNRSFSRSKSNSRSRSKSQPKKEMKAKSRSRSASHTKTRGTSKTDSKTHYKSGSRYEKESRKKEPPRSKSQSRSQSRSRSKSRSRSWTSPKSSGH
UniProt Q9GZT4: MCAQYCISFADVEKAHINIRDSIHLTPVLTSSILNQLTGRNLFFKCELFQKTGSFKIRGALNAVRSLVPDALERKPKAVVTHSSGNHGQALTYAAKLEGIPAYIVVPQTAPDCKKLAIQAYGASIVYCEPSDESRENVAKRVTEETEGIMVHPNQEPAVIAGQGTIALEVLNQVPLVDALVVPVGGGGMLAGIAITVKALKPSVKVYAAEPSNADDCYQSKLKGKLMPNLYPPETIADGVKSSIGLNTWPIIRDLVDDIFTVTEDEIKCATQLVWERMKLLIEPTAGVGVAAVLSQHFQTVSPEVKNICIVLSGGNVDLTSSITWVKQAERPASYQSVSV
UniProt O43805: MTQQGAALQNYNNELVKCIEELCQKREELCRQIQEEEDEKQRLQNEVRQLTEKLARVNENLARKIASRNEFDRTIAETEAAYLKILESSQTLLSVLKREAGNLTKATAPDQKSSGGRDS
UniProt P50502: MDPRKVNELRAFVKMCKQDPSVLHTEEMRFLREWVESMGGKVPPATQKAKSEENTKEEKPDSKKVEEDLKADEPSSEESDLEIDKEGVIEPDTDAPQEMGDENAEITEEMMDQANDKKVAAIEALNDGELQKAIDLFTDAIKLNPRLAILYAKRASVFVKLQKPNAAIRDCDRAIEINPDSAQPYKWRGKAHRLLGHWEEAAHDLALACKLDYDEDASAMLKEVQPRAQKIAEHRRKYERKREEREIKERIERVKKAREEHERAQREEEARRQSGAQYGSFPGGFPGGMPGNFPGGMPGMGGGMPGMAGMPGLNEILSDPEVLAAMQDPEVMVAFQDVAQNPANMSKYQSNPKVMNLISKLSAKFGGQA
UniProt Q16629: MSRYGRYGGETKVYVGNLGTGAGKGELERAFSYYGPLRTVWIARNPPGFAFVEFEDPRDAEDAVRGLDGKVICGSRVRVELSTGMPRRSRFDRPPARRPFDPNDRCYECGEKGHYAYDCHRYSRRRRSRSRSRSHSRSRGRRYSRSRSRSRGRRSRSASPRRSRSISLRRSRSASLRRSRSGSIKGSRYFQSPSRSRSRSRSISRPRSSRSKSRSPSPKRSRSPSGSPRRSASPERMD
UniProt P35270: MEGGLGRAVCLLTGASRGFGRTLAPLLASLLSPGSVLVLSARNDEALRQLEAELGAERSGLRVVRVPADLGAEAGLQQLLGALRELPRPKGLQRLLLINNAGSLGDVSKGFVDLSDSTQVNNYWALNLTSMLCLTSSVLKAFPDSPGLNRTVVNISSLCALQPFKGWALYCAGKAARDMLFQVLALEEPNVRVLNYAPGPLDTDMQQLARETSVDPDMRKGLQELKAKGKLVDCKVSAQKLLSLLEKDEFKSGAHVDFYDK
UniProt Q92783: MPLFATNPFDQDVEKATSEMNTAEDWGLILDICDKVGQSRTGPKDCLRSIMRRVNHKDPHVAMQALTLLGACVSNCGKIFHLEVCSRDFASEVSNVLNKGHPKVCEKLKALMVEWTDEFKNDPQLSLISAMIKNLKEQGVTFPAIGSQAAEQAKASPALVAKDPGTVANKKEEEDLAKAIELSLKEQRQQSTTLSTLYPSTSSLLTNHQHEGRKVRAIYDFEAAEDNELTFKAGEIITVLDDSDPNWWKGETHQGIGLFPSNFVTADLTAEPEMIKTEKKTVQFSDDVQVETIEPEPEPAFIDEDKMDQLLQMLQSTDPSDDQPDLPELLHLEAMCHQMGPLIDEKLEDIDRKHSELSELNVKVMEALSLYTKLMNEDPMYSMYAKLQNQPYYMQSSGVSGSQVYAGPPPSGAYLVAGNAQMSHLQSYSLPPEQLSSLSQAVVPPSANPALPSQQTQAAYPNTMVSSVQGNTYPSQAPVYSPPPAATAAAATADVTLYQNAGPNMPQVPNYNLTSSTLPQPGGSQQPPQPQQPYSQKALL
UniProt Q8TCT7: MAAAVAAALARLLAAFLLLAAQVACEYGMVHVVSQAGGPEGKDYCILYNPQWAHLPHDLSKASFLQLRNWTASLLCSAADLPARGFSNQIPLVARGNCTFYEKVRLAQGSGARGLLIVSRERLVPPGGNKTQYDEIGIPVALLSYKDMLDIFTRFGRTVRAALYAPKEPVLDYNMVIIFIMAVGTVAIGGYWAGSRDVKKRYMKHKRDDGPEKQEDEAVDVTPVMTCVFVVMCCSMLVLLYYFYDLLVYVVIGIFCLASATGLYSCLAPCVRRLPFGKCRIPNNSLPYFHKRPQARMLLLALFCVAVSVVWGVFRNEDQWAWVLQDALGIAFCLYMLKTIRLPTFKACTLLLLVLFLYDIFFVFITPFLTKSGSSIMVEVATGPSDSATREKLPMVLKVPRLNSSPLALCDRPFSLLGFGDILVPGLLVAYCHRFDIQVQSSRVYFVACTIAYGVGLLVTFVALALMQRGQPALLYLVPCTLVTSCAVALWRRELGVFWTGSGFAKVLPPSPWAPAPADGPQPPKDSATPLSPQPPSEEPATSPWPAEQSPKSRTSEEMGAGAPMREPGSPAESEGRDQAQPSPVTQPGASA
UniProt Q658P3: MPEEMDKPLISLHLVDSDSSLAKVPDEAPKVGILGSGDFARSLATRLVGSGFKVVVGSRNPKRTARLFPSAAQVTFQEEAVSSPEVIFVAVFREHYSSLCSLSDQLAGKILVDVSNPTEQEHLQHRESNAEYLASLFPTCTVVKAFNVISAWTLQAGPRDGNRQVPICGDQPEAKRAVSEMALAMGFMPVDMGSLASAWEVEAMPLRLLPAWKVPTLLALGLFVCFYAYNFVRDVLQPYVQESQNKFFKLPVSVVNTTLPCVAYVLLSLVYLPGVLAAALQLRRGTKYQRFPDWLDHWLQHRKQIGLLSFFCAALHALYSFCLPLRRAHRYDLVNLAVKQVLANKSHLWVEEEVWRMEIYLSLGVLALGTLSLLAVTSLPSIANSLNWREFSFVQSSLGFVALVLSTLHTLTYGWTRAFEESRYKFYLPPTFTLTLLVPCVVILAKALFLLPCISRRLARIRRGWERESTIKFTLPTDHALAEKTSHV
UniProt Q9HD15: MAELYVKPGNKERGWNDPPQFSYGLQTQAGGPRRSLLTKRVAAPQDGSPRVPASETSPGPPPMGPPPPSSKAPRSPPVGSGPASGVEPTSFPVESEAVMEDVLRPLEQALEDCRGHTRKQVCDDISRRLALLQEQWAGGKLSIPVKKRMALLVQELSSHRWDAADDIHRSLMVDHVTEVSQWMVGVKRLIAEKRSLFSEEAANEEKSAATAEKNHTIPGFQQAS
UniProt Q9NUL3: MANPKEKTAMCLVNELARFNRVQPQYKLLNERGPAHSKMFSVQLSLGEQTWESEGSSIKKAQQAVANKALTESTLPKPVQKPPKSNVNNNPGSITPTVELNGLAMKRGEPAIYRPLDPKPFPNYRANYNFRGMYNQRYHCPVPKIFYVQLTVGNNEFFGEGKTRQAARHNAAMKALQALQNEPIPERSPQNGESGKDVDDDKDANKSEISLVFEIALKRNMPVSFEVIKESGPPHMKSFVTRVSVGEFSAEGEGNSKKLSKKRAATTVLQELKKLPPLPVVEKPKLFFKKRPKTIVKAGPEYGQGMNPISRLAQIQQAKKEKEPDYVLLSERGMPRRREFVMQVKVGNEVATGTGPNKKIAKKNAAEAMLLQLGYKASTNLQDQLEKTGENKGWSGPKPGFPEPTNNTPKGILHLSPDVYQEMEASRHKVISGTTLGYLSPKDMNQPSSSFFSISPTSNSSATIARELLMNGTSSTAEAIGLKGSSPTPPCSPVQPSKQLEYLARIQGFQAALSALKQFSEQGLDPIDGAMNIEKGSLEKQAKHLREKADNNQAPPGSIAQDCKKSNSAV
UniProt P42229: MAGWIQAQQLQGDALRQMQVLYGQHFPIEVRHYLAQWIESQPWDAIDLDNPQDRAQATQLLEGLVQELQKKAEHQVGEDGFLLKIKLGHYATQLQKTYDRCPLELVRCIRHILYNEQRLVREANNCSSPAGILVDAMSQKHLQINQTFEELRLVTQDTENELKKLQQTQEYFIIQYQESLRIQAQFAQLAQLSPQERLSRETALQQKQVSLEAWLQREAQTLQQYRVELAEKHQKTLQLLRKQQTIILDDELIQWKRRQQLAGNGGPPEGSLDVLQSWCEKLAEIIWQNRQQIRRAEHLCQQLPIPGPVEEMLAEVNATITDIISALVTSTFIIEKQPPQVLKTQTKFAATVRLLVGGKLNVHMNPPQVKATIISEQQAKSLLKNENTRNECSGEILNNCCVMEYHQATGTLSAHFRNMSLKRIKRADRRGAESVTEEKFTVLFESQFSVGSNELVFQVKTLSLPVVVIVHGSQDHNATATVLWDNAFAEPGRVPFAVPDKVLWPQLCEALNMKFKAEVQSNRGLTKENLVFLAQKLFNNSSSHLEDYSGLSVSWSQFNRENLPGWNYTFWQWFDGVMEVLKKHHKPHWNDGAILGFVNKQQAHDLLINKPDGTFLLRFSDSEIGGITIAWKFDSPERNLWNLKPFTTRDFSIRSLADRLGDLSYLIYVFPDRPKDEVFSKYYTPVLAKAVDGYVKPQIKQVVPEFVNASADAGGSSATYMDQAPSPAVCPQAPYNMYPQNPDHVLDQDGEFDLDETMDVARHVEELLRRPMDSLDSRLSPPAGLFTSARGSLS
UniProt Q8N9Q2: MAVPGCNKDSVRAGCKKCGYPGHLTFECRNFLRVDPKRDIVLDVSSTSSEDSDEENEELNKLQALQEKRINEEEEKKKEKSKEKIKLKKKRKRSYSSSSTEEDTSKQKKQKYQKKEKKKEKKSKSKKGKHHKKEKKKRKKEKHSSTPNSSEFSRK
UniProt Q9UNL2: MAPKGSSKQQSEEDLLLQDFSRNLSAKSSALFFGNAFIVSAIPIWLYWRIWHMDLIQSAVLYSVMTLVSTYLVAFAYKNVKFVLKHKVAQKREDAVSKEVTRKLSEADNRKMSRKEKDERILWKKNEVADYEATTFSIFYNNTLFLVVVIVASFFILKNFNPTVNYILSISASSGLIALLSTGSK

Columns and labels:
Assay in all cases: log2 fold change, soluble protein after heating vs DMSO (PISA); higher = thermal stabilisation; K562 cells, 10 uM, 30 min; active = over 0.2 and 3.5 SD of the protein, either way, in both replicates (recomputed)
[1] = compound: CC1=C(C=C(C=C1)NC(=O)C2=CC(=CC=C2)C(C)(C)C#N)NC3=CC4=C(C=C3)N=CN(C4=O)C
In short: (§1)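 Quantification of soluble protein used TMTpro 16plex LC-MS/MS, with channel sums equalised. Samples were the supernatant after 21,000xg for 90 min of pooled aliquots from K562 cells (2×10^6 cells/mL) treated with 10 μM compound for 30 min, heated for 3 min over 48°C-58°C, and extracted in PBS with 0.5% NP-40 at 4°C. Values, from duplicates, describe thermal stability against control samples on a log2 fold-change scale.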

[2] = compound: CC1=C(C=C(C=C1)NC(=O)C2=CC(=CC=C2)N(C)C)NC(=O)C3=CC=C(C=C3)O
In short: as §1

[3] = compound: CC1=CC=C(C=C1)SC2=C3C=C(SC3=CN=C2)C(=O)N
In short: as §1

[4] = compound: CC1=NC(=CC=C1)C2=C(N=C(N2)C(C)(C)C)C3=CC4=NC=CN=C4C=C3
In short: as §1

Nexturastat A = compound: CCCCN(Cc1ccc(C(=O)NO)cc1)C(=O)Nc1ccccc1 [Nexturastat A]
In short: as §1

vemurafenib = compound: CCCS(=O)(=O)Nc1ccc(F)c(C(=O)c2c[nH]c3ncc(-c4ccc(Cl)cc4)cc23)c1F [vemurafenib]
In short: as §1

[5] = compound: CCCS(=O)(=O)Nc1ccc(F)c(C(=O)c2c[nH]c3ncc(Cl)cc23)c1F
In short: as §1

[6] = compound: CCCc1cc(C)[nH]c(=O)c1CNC(=O)c1cc(-c2ccnc(N3CCN(C)CC3)c2)cc2c1cnn2C(C)C
In short: as §1

givinostat = compound: CCN(CC)Cc1ccc2cc(COC(=O)Nc3ccc(C(=O)NO)cc3)ccc2c1 [givinostat]
In short: as §1

barasertib = compound: CCN(CCCOc1ccc2c(Nc3cc(CC(=O)Nc4cccc(F)c4)[nH]n3)ncnc2c1)CCOP(=O)(O)O [barasertib]
In short: as §1

[7] = compound: CC[C@@H]1C(=O)N(C)c2cnc(Nc3ccc(C(=O)NC4CCN(C)CC4)cc3OC)nc2N1C1CCCC1
In short: as §1

volasertib = compound: CC[C@@H]1C(=O)N(C)c2cnc(Nc3ccc(C(=O)N[C@H]4CC[C@H](N5CCN(CC6CC6)CC5)CC4)cc3OC)nc2N1C(C)C [volasertib]
In short: as §1

[8] = compound: CC[C@H](C)N1C=C(C2=C(C=C(C=C21)C3=CN=C(C=C3)N4CCNCC4)C(=O)NCC5=C(C=C(NC5=O)C)C)C
In short: as §1

epoxomicin = compound: CC[C@H](C)[C@@H](C(=O)N[C@@H]([C@@H](C)O)C(=O)N[C@@H](CC(C)C)C(=O)[C@]1(CO1)C)NC(=O)[C@H]([C@@H](C)CC)N(C)C(=O)C [epoxomicin]
In short: as §1

[9] = compound: CCn1c(C(=O)N(C2CC2)C2CC2)cc2c3c(ncn3C)c(Nc3cc(C)n(C)n3)nc21
In short: as §1

[10] = compound: CCn1cc(-c2ccnc3[nH]c(-c4cccc(CN(C)C)c4)cc23)c(-c2ccc(NC(=O)N(C)C)cc2)n1
In short: as §1

[11] = compound: CN(C)CC(=O)Nc1ccc2[nH]c(=O)c3ccccc3c2c1
In short: as §1

rosiglitazone = compound: CN(CCOC1=CC=C(C=C1)C[C@H]2C(=O)NC(=O)S2)C3=CC=CC=N3 (racemic) [rosiglitazone]
In short: as §1

[12] = compound: CN1C2=C(C3=C1C(=O)N(N=C3)CC4=CC(=CC=C4)N)SC(=C2)S(=O)C
In short: as §1

[13] = compound: CN1CCC(CNc2ccc3ncc(-c4cccc(OC(F)(F)F)c4)n3n2)CC1
In short: as §1

Measured: log2 fold change

SPC24 (UniProt Q8NBT2)
inactive: [1] 0.065 | [2] -0.044 | [3] 0.011 | [4] 0.069 | Nexturastat A -0.018 | vemurafenib 0.095 | [5] 0.077 | [6] 0.014 | givinostat 0 | barasertib 0.044 | [7] -0.163 | volasertib -0.144 | [8] 0.014 | epoxomicin 0.017 | [9] 0.008 | [10] 0.01 | [11] 0.049 | rosiglitazone 0.048 | [12] -0.048 | [13] 0.033

STAT5B (UniProt P51692)
inactive: [1] -0.165 | [2] -0.102 | [3] 0.222 | [4] 0.111 | Nexturastat A 0.014 | vemurafenib 0.046 | [5] 0.08 | [6] 0.101 | givinostat 0.145 | barasertib 0.113 | [7] -0.221 | volasertib -0.333 | [8] 0.36 | epoxomicin 0.004 | [10] 0.052 | [11] 0.105 | [12] -0.063 | [13] -0.045

SRSF10 (UniProt O75494)
inactive: [1] -0.046 | [2] 0.029 | [3] -0.076 | [4] -0.134 | Nexturastat A 0.227 | vemurafenib -0.027 | [5] -0.027 | [6] 0.083 | givinostat 0.017 | barasertib -0.045 | [7] 0.141 | volasertib 0.274 | [8] -0.197 | epoxomicin -0.408 | [10] 0.276 | [11] -0.127 | [12] 0.498 | [13] 0.237

SRR (UniProt Q9GZT4)
inactive: [1] -0.025 | [2] 0.194 | [3] 0.037 | [4] -0.014 | Nexturastat A -0.167 | vemurafenib -0.009 | [5] 0.076 | [6] -0.028 | givinostat 0 | barasertib 0.063 | [7] -0.078 | volasertib -0.135 | [8] 0.01 | epoxomicin 0.021 | [9] -0.044 | [10] 0.063 | [11] -0.031 | rosiglitazone -0.038 | [12] -0.016 | [13] 0

SSNA1 (UniProt O43805)
inactive: [1] 0.024 | [2] -0.025 | [3] -0.001 | [4] 0.089 | Nexturastat A -0.033 | vemurafenib -0.035 | [5] -0.003 | [6] -0.003 | givinostat -0.1 | barasertib 0.011 | [7] 0.02 | volasertib 0.009 | [8] 0 | epoxomicin 0.018 | [9] 0.028 | [10] -0.014 | [11] -0.059 | rosiglitazone 0.009 | [12] -0.021 | [13] 0.024

ST13 (UniProt P50502)
inactive: [1] 0.029 | [2] 0.003 | [3] 0.023 | [4] 0.033 | Nexturastat A -0.101 | vemurafenib 0.008 | [5] 0.021 | [6] -0.007 | givinostat -0.008 | barasertib 0.032 | [7] -0.014 | volasertib 0.019 | [8] 0.042 | epoxomicin 0.011 | [9] 0.039 | [10] -0.09 | [11] 0.021 | rosiglitazone 0.049 | [12] -0.078 | [13] -0.053

SRSF7 (UniProt Q16629)
inactive: [1] 0 | [2] 0.025 | [3] -0.115 | [4] -0.112 | Nexturastat A 0.193 | vemurafenib -0.043 | [5] -0.088 | [6] 0.114 | givinostat 0.059 | barasertib -0.105 | [7] 0.18 | volasertib 0.215 | [8] -0.039 | epoxomicin -0.171 | [10] 0.181 | [11] -0.085 | [12] 0.218 | [13] 0.175

SPR (UniProt P35270)
inactive: [1] 0.103 | [2] -0.003 | [3] 0.063 | [4] -0.043 | Nexturastat A -0.069 | vemurafenib -0.019 | [5] 0.019 | [6] 0.009 | givinostat -0.004 | barasertib -0.076 | [7] 0.02 | volasertib 0.165 | [8] 0.013 | epoxomicin -0.054 | [10] 0.073 | [11] 0.153 | [12] -0.184 | [13] 0.012
active: [9] 0.412

STAM (UniProt Q92783)
inactive: [1] -0.066 | [2] -0.011 | [3] 0.041 | [4] 0.099 | Nexturastat A -0.143 | vemurafenib 0.005 | [5] 0.034 | [6] -0.051 | givinostat -0.044 | barasertib 0.026 | [7] -0.048 | volasertib -0.108 | [8] 0.026 | epoxomicin -0.068 | [9] 0.005 | [10] -0.004 | [11] -0.046 | rosiglitazone 0.044 | [12] 0.061 | [13] -0.025

SPPL2B (UniProt Q8TCT7)
inactive: [1] -0.097 | [2] 0.004 | [3] 0.089 | [4] 0.041 | Nexturastat A 0.029 | vemurafenib -0.05 | [5] -0.018 | [6] 0.021 | givinostat 0.048 | barasertib 0 | [7] 0.039 | volasertib 0 | [8] -0.003 | epoxomicin -0.076 | [10] 0.028 | [11] 0.035 | [12] 0.033 | [13] -0.228

STEAP3 isoform 2 (UniProt Q658P3)
inactive: [1] -0.009 | [2] 0.015 | [3] 0.008 | [4] -0.003 | Nexturastat A -0.05 | vemurafenib -0.027 | [5] 0.007 | [6] -0.025 | givinostat 0.005 | barasertib -0.004 | [7] 0.036 | volasertib -0.013 | [8] -0.023 | epoxomicin 0.01 | [10] -0.084 | [11] 0.002 | [12] 0.041 | [13] -0.096

SRA1 (UniProt Q9HD15)
inactive: [1] 0.002 | [2] -0.034 | [3] 0.003 | [4] 0.043 | Nexturastat A -0.01 | vemurafenib 0.025 | [5] 0.014 | [6] 0.013 | givinostat -0.025 | barasertib 0.017 | [7] 0.018 | volasertib -0.034 | [8] -0.011 | epoxomicin 0.03 | [9] -0.022 | [10] -0.001 | [11] -0.008 | rosiglitazone 0.029 | [12] -0.074 | [13] -0.064

STAU2 (UniProt Q9NUL3)
inactive: [1] 0.019 | [3] -0.04 | [4] -0.079 | Nexturastat A 0.626 | vemurafenib -0.222 | [5] -0.149 | [6] 0.162 | givinostat 0.062 | barasertib -0.109 | [7] 0.2 | volasertib 0.494 | epoxomicin 0.063 | [9] -0.008 | [10] 0.12 | [11] -0.003 | rosiglitazone -0.271 | [12] 0.356 | [13] 0.068

SPTBN1 (UniProt Q01082)
inactive: [1] 0.018 | [2] 0.02 | [3] 0.004 | [4] -0.036 | Nexturastat A 0.088 | vemurafenib 0.058 | [5] 0.006 | [6] 0.051 | givinostat 0.049 | barasertib 0.019 | [7] 0.009 | volasertib -0.163 | [8] 0.079 | epoxomicin -0.024 | [10] 0.013 | [11] 0.018 | [12] 0.081 | [13] 0.048

STAT5A (UniProt P42229)
active: volasertib -0.633
inactive: [1] -0.033 | [2] -0.113 | [3] 0.072 | [4] 0.011 | Nexturastat A -0.009 | vemurafenib 0.067 | [5] 0.067 | [6] 0.141 | givinostat 0.156 | barasertib 0.096 | [7] -0.225 | [8] 0.121 | epoxomicin 0.072 | [10] 0.041 | [11] 0.074 | [12] -0.005 | [13] -0.109

SREK1IP1 (UniProt Q8N9Q2)
inactive: [1] 0.001 | [2] -0.004 | [3] -0.051 | Nexturastat A 0.109 | vemurafenib -0.003 | [5] -0.016 | [6] -0.007 | givinostat -0.171 | barasertib -0.044 | [7] 0.053 | volasertib 0.123 | [8] -0.002 | epoxomicin -0.106 | [9] 0.136 | [10] 0.056 | [11] -0.081 | rosiglitazone -0.021 | [12] 0 | [13] 0.026

SSR3 isoform 2 (UniProt Q9UNL2)
inactive: [1] -0.032 | [2] 0.123 | [3] -0.014 | [4] 0.022 | Nexturastat A -0.103 | vemurafenib 0.11 | [5] -0.011 | [6] -0.075 | givinostat -0.042 | barasertib 0.017 | [7] 0.05 | volasertib 0.059 | [8] -0.075 | epoxomicin -0.054 | [10] -0.069 | [11] 0.087 | [12] 0.056 | [13] 0.195

2 records picked at random from the list so far, as already listed:
STAU2 (UniProt Q9NUL3)
inactive: [1] 0.019 | [3] -0.04 | [4] -0.079 | Nexturastat A 0.626 | vemurafenib -0.222 | [5] -0.149 | [6] 0.162 | givinostat 0.062 | barasertib -0.109 | [7] 0.2 | volasertib 0.494 | epoxomicin 0.063 | [9] -0.008 | [10] 0.12 | [11] -0.003 | rosiglitazone -0.271 | [12] 0.356 | [13] 0.068

STAT5B (UniProt P51692)
inactive: [1] -0.165 | [2] -0.102 | [3] 0.222 | [4] 0.111 | Nexturastat A 0.014 | vemurafenib 0.046 | [5] 0.08 | [6] 0.101 | givinostat 0.145 | barasertib 0.113 | [7] -0.221 | volasertib -0.333 | [8] 0.36 | epoxomicin 0.004 | [10] 0.052 | [11] 0.105 | [12] -0.063 | [13] -0.045
